The target in assay [1] is pTyr421-cortactin (human (endogenous in HCT116)) (UniProt Q14247). In words: condition: only cells treated with 50 µM curcumin for 15 min; co-IP; as a1, HCT116 cells treated with 50 µM curcumin for 15 min before lysis; IP with anti-pTyr421-CTTN, blot for CTNND1.
Assay [2] concerns the target cortactin (total CTTN) (human (endogenous in HCT116)) (UniProt Q14247). In words: co-IP; HCT116 cells lysed in RIPA buffer, pre-cleared lysates; 5 µg antibody (anti-pTyr421-CTTN or anti-CTTN total, rabbit polyclonal) to 1 mg lysate overnight at 4°C, protein A/G agarose 1 h at 4°C; blot for CTNND1; cells without or with 50 µM curcumin for 15 min (curcumin greatly reduced the co-precipitate with total CTTN).

Chains of the proteins cited; added tags and fusions are not shown.
UniProt Q14247: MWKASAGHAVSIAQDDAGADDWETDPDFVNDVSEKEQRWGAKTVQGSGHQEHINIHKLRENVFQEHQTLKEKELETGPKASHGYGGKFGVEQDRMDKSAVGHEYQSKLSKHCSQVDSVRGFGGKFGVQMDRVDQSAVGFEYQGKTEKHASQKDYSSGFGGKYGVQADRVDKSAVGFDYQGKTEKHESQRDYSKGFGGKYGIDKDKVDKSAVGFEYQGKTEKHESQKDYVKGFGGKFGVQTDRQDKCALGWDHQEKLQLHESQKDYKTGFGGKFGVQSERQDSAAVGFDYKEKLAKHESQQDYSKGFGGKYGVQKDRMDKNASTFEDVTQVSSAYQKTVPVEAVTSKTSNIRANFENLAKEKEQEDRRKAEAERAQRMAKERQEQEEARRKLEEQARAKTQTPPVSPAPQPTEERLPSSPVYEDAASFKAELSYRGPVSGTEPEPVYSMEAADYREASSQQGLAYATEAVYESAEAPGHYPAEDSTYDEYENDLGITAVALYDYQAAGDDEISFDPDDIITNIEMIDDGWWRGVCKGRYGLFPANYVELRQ

The target in assay [3] is pTyr421-cortactin (human (endogenous in HCT116)) (UniProt Q14247). The assay is described as above.

These are yes or no findings as the source states them, for the method shown. In cells and extracts the contact can be indirect. Some results given as binding are weak or reduced against the parent protein; the word gives no strength.

B1: p120 catenin (cadherin-associated protein) delta 1 (CTNND1) (protein, UniProt O60716 1-968)
chain: MDDSEVESTASILASVKEQEAQFEKLTRALEEERRHVSAQLERVRVSPQDANPLMANGTLTRRHQNGRFVGDADLERQKFSDLKLNGPQDHSHLLYSTIPRMQEPGQIVETYTEEDPEGAMSVVSVETSDDGTTRRTETTVKKVVKTVTTRTVQPVAMGPDGLPVDASSVSNNYIQTLGRDFRKNGNGGPGPYVGQAGTATLPRNFHYPPDGYSRHYEDGYPGGSDNYGSLSRVTRIEERYRPSMEGYRAPSRQDVYGPQPQVRVGGSSVDLHRFHPEPYGLEDDQRSMGYDDLDYGMMSDYGTARRTGTPSDPRRRLRSYEDMIGEEVPSDQYYWAPLAQHERGSLASLDSLRKGGPPPPNWRQPELPEVIAMLGFRLDAVKSNAAAYLQHLCYRNDKVKTDVRKLKGIPVLVGLLDHPKKEVHLGACGALKNISFGRDQDNKIAIKNCDGVPALVRLLRKARDMDLTEVITGTLWNLSSHDSIKMEIVDHALHALTDEVIIPHSGWEREPNEDCKPRHIEWESVLTNTAGCLRNVSSERSEARRKLRECDGLVDALIFIVQAEIGQKDSDSKLVENCVCLLRNLSYQVHREIPQAERYQEAAPNVANNTGPHAASCFGAKKGKDEWFSRGKKPIEDPANDTVDFPKRTSPARGYELLFQPEVVRIYISLLKESKTPAILEASAGAIQNLCAGRWTYGRYIRSALRQEKALSAIADLLTNEHERVVKAASGALRNLAVDARNKELIGKHAIPNLVKNLPGGQQNSSWNFSEDTVISILNTINEVIAENLEAAKKLRETQGIEKLVLINKSGNRSEKEVRAAALVLQTIWGYKELRKPLEKEGWKKSDFQVNLNNASRSQSSHSYDDSTLPLIDRNQKSDKKPDREEIQMSNMGSNTKSLDNNYSTPNERGDHNRTLDRSGDLGDMEPLKGTTPLMQDEGQESLEEELDVLVLDDEGGQVSYPSMQKI
In the case of B1, the binding result is on record as “no binding” in assay [1], “binds” in assay [2] and “binds” in assay [3].

Source of the values: paper PMC3899080.
